# Percent effect of library compounds

Protein sequences, listed by entry. Tags and fused reporters are not part of them. Residues count along the entry.
UniProt A4I591, 1-473: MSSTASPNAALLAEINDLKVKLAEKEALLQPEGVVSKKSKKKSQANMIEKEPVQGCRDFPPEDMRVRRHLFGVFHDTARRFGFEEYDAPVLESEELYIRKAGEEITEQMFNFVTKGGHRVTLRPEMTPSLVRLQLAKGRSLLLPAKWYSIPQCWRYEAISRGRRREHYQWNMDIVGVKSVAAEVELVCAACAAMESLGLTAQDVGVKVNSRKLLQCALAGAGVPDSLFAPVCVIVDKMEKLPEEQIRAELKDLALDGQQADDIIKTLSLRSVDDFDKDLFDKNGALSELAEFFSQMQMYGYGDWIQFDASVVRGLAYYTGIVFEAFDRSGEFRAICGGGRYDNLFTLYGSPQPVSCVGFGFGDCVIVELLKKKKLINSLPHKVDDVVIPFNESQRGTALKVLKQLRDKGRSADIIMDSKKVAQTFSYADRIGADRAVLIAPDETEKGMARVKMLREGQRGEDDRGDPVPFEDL
UniProt P9WPC5, whole entry: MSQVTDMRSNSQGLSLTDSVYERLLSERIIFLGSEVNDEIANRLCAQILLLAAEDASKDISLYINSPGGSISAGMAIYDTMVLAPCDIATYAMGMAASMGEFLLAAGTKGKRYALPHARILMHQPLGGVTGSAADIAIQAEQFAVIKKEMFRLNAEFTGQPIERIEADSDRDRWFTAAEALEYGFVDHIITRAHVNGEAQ
UniProt P9WPC3, whole entry partner: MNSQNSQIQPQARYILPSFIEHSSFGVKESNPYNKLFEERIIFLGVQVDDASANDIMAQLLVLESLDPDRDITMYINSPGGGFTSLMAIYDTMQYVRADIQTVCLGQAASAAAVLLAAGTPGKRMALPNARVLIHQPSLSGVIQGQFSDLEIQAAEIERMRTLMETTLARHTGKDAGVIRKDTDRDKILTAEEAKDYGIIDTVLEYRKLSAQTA

A: 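Enzyme assay of histidyl-tRNA synthetase; the read-out is not stated. Target: Histidine-tRNA ligase, Leishmania infantum (UniProt A4I591). Tested at 30 µM. The record gives no direction; compounds that gave an IC50 in retests scored well above the rest, so higher reads as stronger inhibition. The assay is labelled LdHisRS but filed under L. infantum. Size under these conditions: about 69,000 compounds, about 410 of them at 50% or above in at least one test.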
B: 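Assay of Toxoplasma gondii numbers, read through their beta-galactosidase reporter with a colour substrate. Tested at 10 µM. Higher reads as fewer parasites (inferred from which compounds were picked for retests). Size under these conditions: about 67,000 compounds, about 260 of them at 50% or above in at least one test.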
C: 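ClpP1P2, Mycobacterium tuberculosis (UniProt P9WPC5 and UniProt P9WPC3). Protease assay of ClpP1P2, read by the AMC dye that it sets free. Tested at 50 µM. Direction is inferred from only a few compounds that gave an IC50; most scored high, so higher reads as stronger inhibition. Most other retested compounds had strongly negative values. Size under these conditions: about 69,000 compounds, about 10 of them at 50% or above in at least one test.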
D: 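Whole-parasite assay of Trypanosoma brucei over 72 hours; the read-out is not stated. Compounds at 30 µM. Direction is inferred from retests: higher values go with stronger inhibition. Values scatter widely below zero; nearly all retest evidence comes from the higher of the two concentrations used. About 64,000 compounds were tested under these conditions; 1.5% (about 940) showed 50% or more at least once.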
E: 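Cell assay of Leishmania donovani living inside macrophages; the read-out is not stated. Concentration: 30 µM. Direction is inferred from retests: higher values go with stronger inhibition. Of about 69,000 compounds tested this way, about 1,000 (1.5%) reached 50% or more in at least one test.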

Results are given as percent effect.
How 0% and 100% were set is not recorded. Most values in the screen are low, and negative values occur.
Compounds were drawn at random from those tested, without regard to their results.
Two or more numbers in one place are separate tests of the same structure; such repeats can differ widely.

CN(C)S(=O)(=O)N1C[C@H]2C[C@H](C(=O)Nc3cccnc3)[C@@H](C1)O2 gave A: 12%; C: 0.5578%.
CCc1nccn1C1CCCN(C(=O)c2ccc(C(=O)NC)nc2)C1 (stereo not given) gave A: 0%; B: -0.3176%; C: -5.795%; D: 4.673%; E: -1.419%.
c1ccc2c(c1)CC(N1CCCC(NCc3cccc4nonc34)C1)C2 (stereo not given) gave A: 9.6%; B: 1.748%; C: -35.8%; D: -69.74%; E: 14.77%.
Cc1cc(CN2CCN(C(=O)c3sccc3C3CC3)CC2)no1 gave A: 16.81%; B: -13.58%; C: -53.95%; E: 26.93%.
[H][C@]12CN(C(=O)c3cccnc3)C[C@@]1([H])C(=O)N(CCN1CCCC1)C2 gave B: -4.032%; D: -32.96%; E: 4.327%.
O=C(O)C(F)(F)F.[H][C@@]12OCCC[C@]1([H])N(S(=O)(=O)CC)C[C@H]2OCc1ccccn1 gave B: 10.05%; D: -13.96%; E: 23.35%.
COc1ccc(C)cc1CN(Cc1ncc(C)o1)C1CCN(C)C1 (stereo not given) gave A: 10.53%; B: -0.7203%; C: 10.46%; D: -50.91%; E: 13.71%.
CNc1nc(C(=O)NCc2cccnc2N(C)C2CCCCC2)cs1 gave A: 26.37%; B: -5.238%; C: 4.877%; D: -3.376%; E: 24.24%.
CCC(C(=O)NCC1=CCN(C)CC1)c1ccccc1 (stereo not given) gave A: 20.48%; B: 26.45%; C: 14.75%; D: -63.6%; E: -42.25%.
CCn1ccnc1CN1CCC(N(Cc2ncc(C)o2)C(C)=O)C1 (stereo not given) gave A: 15.38%; B: 11.21%; C: -3.267%; D: -19.21%; E: 12.38% and 25.92%.
CCn1cc(NC(=O)CN2CCC(Oc3ccc(F)cc3)CC2)c(C)n1.Cl gave B: -0.4952%; D: 9.592%; E: 48.51%.
O=C(O)C(F)(F)F.[H][C@@]12CN(Cc3csnn3)C[C@]1([H])OCCN2c1ncccn1 gave B: 1.224%; D: -0.1541%; E: 41.98%.
NC(=O)C1CCN(c2ccc3cc(Br)ccc3n2)C1 (stereo not given) gave A: 7.407%; B: 8.583%; C: -6.494%; D: -61.75%; E: 17.07%.
CC1CCCN(c2ccccc2OCC(=O)N2CCOCC2)C1 (stereo not given) gave A: 31.58%; B: -9.634%; C: -4.163%; D: -2.817%; E: 3.142%.
CC1(C)OC(=O)N(CCOc2ccc(F)cc2)C1=O gave A: 20.48%; B: -9.792%; C: -5.112%; D: -37.66%; E: -18.71%.
Cc1ccc(S(=O)(=O)N2CCC3(CC(C(=O)NC4CCC4)=NO3)C2)cc1 (stereo not given) gave A: 14.55%; B: 4.578%; C: 0.7993%; D: 34.3%; E: 16.07%.
Cc1cccc(NC(=O)[C@@H]2CCCN2CC(=O)N2CCCCCC2)n1 gave A: 16.5%; B: -0.3304%; C: -6.91%; D: 11.41%; E: 13.26%.
Cc1cnc(CNC(=O)NC2CCCN(c3ccccc3F)C2)s1 (stereo not given) gave A: 6.494%; B: -3.308%; C: -8.226%; D: -4.18%; E: -3.078%.
CC(C(=O)NCc1cccc(N2CC=CC2)c1)n1cccn1 (stereo not given) gave A: 10.4%; B: -12.28%; C: 8.686%; D: -42.29%; E: -21.56%.

Some entries from above, unchanged:

- CC1CCCN(c2ccccc2OCC(=O)N2CCOCC2)C1 (stereo not given) | A: 31.58%; B: -9.634%; C: -4.163%; D: -2.817%; E: 3.142%
- O=C(O)C(F)(F)F.[H][C@@]12OCCC[C@]1([H])N(S(=O)(=O)CC)C[C@H]2OCc1ccccn1 | B: 10.05%; D: -13.96%; E: 23.35%

Data taken from ChEMBL document CHEMBL3988442, “University of Dundee, Small-Polar-MMV Screening Library” (2021).